From article PMC7819943, “Rice protein-binding microarrays: a tool to detect cis-acting elements near promoter regions in rice”
This is one part of the list.

The sequences below were run against T1, OsSMF1 (Oryza sativa, UniProt Q6ZLB0 1-436) (assay: protein-binding microarray (RPBM); PBS, 2% BSA, 51.3 ng/ul salmon testes DNA, 50 uM zinc acetate, 200 nM TF, 25 C, 1 h; high values mean tight binding). Details: protein: recombinant; tags: N-terminal polyhistidine and DsRed monomer fusion (pET32a); chain copies: 2; label: CyDye5-dUTP incorporated in the synthesized complementary strand; 3' TTTTT single-stranded linker to array surface; dsDNA, one strand shown.
T1 sequence: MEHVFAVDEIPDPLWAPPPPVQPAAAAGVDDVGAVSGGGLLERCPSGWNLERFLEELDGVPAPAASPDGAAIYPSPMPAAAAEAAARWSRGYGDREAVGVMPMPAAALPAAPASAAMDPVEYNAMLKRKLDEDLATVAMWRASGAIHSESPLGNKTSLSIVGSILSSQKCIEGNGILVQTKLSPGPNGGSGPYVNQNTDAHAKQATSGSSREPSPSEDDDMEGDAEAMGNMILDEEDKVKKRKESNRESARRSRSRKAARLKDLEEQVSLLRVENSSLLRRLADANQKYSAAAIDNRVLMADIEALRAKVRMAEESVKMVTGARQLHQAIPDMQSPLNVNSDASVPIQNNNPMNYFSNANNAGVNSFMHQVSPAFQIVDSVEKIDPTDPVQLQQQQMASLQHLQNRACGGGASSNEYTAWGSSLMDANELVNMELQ
Method in brief: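 Using Ni–NTA, transcription factors fused N-terminally to polyhistidine and DsRed were purified after expression in E. coli BL21-CodonPlus. These were incubated at 200 nM with a blocked, double-stranded custom Agilent array for 1 h at 25 °C in a buffer containing 50 µM zinc acetate, and the array was washed. The binding signal is per-feature fluorescence intensity (arbitrary units) on an Axon 4000B scanner.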
With “CAACCAATGAGTTGAAGGTTGCAAGCTGACACGTAAAGTTCGGAGTCACCTAGTGCAG” the binding signal was 4910 fluorescence intensity (a.u.). “CGAGTGGCAAATAGGCGGTATCATCTCGCATTTCACTATTCGGAGTCACCTAGTGCAG” was tested, and the binding signal was 7100 fluorescence intensity (a.u.). For “TTCCTCTGAACATTGCTATGGCAGTTCAGATTTAAGCCCACGGAGTCACCTAGTGCAG”, the binding signal was 3170 fluorescence intensity (a.u.). In the case of “ATATCTATGCACGCGACAACCAAAACATTACAATTCCACGCGGAGTCACCTAGTGCAG”, the binding signal is reported as 3240 fluorescence intensity (a.u.). “GTTTGCTAATTAACGCGGGCAAGATCGAACACGGCCATGTCGGAGTCACCTAGTGCAG” was tested, and the binding signal was 15300 fluorescence intensity (a.u.). With “AACTAATGCCAATATTGGCCTATATTGGCACACGTGGGTACGGAGTCACCTAGTGCAG” the binding signal was 4350 fluorescence intensity (a.u.). “ACCCCGCCTTGGACGCCACGTCCAAGCTAGGCACCCGATGCGGAGTCACCTAGTGCAG” was tested, and the binding signal was 5270 fluorescence intensity (a.u.). For “TTATGTTTGAATTTAAGTTTTGAGTTTTGTTGCGTGCGCACGGAGTCACCTAGTGCAG”, the binding signal was 28800 fluorescence intensity (a.u.). “AATCTCCCTCACGCTGACGTCAGCCCTAGCGTTCTCCTCCCGGAGTCACCTAGTGCAG” was tested, and the binding signal was 19700 fluorescence intensity (a.u.). With “CACGCCACCACGCTCTCCGTGACAACGAGGCGCCAACCTCCGGAGTCACCTAGTGCAG” the binding signal was 3640 fluorescence intensity (a.u.). “GGCTGAGAGAGAGACGCACACATGACACACCGGCGGACAACGGAGTCACCTAGTGCAG” was tested, and the binding signal was 4250 fluorescence intensity (a.u.). With “CACCCGATTAAGTGCACGGACATGACGACTTCTACCGCCGCGGAGTCACCTAGTGCAG” the binding signal was 4550 fluorescence intensity (a.u.). In the case of “GCCAGGTCCAACGCTGCAGATGTGTATAACATGCGGACACCGGAGTCACCTAGTGCAG”, the binding signal is reported as 3340 fluorescence intensity (a.u.). “TTTTATCACATCGTTTTAATTTCAACCAAACTTTCAATTTCGGAGTCACCTAGTGCAG” was tested, and the binding signal was 32600 fluorescence intensity (a.u.). In the case of “CGCCACATAGACGTCACATCAGCTAAAACCACCAAGAGACCGGAGTCACCTAGTGCAG”, the binding signal is reported as 4110 fluorescence intensity (a.u.). With “TCTGCAGCAGCAGCTTGTGTGCCCTCACCATCATCATCATCGGAGTCACCTAGTGCAG” the binding signal was 4210 fluorescence intensity (a.u.). “ATCCAGATTCAGAGTAGGAGCTAAAACCATGGTGAATCTGCGGAGTCACCTAGTGCAG” was tested, and the binding signal was 5250 fluorescence intensity (a.u.). In the case of “GTGGTTGGTGATGACCGGGGAGCGCGTCAGCGCCTGGTGGCGGAGTCACCTAGTGCAG”, the binding signal is reported as 3940 fluorescence intensity (a.u.). For “TCTACTGTTGCATTGCAGTGTTTGTAAGGGTGAATATTTACGGAGTCACCTAGTGCAG”, the binding signal was 9140 fluorescence intensity (a.u.). “TCCACCATTAGCAGTTTAACCGTCTGATCAGCAGTGGAACCGGAGTCACCTAGTGCAG” was tested, and the binding signal was 3420 fluorescence intensity (a.u.). For “GGGCCTGGACACAATGGTTGGTGAACATGGAGCTCAGCTACGGAGTCACCTAGTGCAG”, the binding signal was 30500 fluorescence intensity (a.u.). With “CTCACCCTCGACCTGTCATCCTCCGCCACCTTCTTCGACTCGGAGTCACCTAGTGCAG” the binding signal was 5120 fluorescence intensity (a.u.). With “AAGCAAGCAATTGCTTTTGCTAAAGCCACGCAAGCAAACCCGGAGTCACCTAGTGCAG” the binding signal was 9890 fluorescence intensity (a.u.). With “CCTAATTAATCCATAATTATCAAAAGTTTACTGTAGCATCCGGAGTCACCTAGTGCAG” the binding signal was 27800 fluorescence intensity (a.u.). For “TAGACAAGCGCACTTTCTGCTCTCTGACGCCAGATCAACTCGGAGTCACCTAGTGCAG”, the binding signal was 3600 fluorescence intensity (a.u.). With “GTGGGGCCTAGGTGGGTCCCACGCTGACTCAGCTGCCACACGGAGTCACCTAGTGCAG” the binding signal was 17900 fluorescence intensity (a.u.). For “GTGATGACGTGCCCAGCTAACACGTGGGGTCCACGTGGGTCGGAGTCACCTAGTGCAG”, the binding signal was 20000 fluorescence intensity (a.u.). In the case of “CCATGGCTGCCCTACTGCGTCATCCCTAGCTTGTCGAGGTCGGAGTCACCTAGTGCAG”, the binding signal is reported as 4980 fluorescence intensity (a.u.). With “CGTTTTGTAATTGTAAGGCTACGTTCAAAAGTGGAGGATGCGGAGTCACCTAGTGCAG” the binding signal was 3320 fluorescence intensity (a.u.). In the case of “TTCCTTCATTATATCCTAACTACCGGGCTCCTGAGTCAGCCGGAGTCACCTAGTGCAG”, the binding signal is reported as 6970 fluorescence intensity (a.u.). “ACTCCTGAGTCAACCAAGGAAAGAATGTTCGATGACCTGCCGGAGTCACCTAGTGCAG” was tested, and the binding signal was 3480 fluorescence intensity (a.u.). “AAGAAGAAGAAGAAATGAATGCCGAGCTGGCATTTACTTACGGAGTCACCTAGTGCAG” was tested, and the binding signal was 4720 fluorescence intensity (a.u.). In the case of “ACATATGCTGTGTTAATGAATATGGCTAGCCAACGTGTATCGGAGTCACCTAGTGCAG”, the binding signal is reported as 4350 fluorescence intensity (a.u.). “CACTCCAGTCAGTCCACGCCCACACCGCCGCCGCCCGCATCGGAGTCACCTAGTGCAG” was tested, and the binding signal was 3870 fluorescence intensity (a.u.). “GGGCCCACCTTTCAGCCTCCGTCACGTCACCGGCTCCGCCCGGAGTCACCTAGTGCAG” was tested, and the binding signal was 5720 fluorescence intensity (a.u.). In the case of “ATATATTTAATCCAGTCCTTACATGACTCGGATTGGCGTGCGGAGTCACCTAGTGCAG”, the binding signal is reported as 7230 fluorescence intensity (a.u.). With “TCAGGGTGTTGGGCAGATCAGTTCACTTGGTTAGCGAGCGCGGAGTCACCTAGTGCAG” the binding signal was 3820 fluorescence intensity (a.u.). “CGGCAGAGAGAGAGGGGTTCGAGAAATAAATTCCAGTGGCCGGAGTCACCTAGTGCAG” was tested, and the binding signal was 3150 fluorescence intensity (a.u.). In the case of “TGTGCAATACCAAATCCTGACCGTTGATCTAGCATCATTCCGGAGTCACCTAGTGCAG”, the binding signal is reported as 4100 fluorescence intensity (a.u.). In the case of “AGGTTGTGGTTCCGTCACGAGTAAACTGGCGATCAAACCGCGGAGTCACCTAGTGCAG”, the binding signal is reported as 3460 fluorescence intensity (a.u.). With “GTATATATTAAGCCAATGGATGGTTGCCACTCCTTGGCACCGGAGTCACCTAGTGCAG” the binding signal was 3280 fluorescence intensity (a.u.). “CACACCATGCATCCGTCCGCATATACCCTGTCAACAATGTCGGAGTCACCTAGTGCAG” was tested, and the binding signal was 3970 fluorescence intensity (a.u.).
